Test results published in PubChem BioAssay AID248 (DTP/NCI, 2004).
The list does not hold the whole screen: it gathers tests that were run many times, whatever their T/C, doses with no T/C, and many T/C values between a quarter and a half above the control. Other doses and runs of a compound stand elsewhere. T/C is the treated group as % of the vehicle group. Some entries give survivors of the animals treated and no T/C: the source holds a T/C of zero for them, seemingly a mark for toxic or unscored doses. Some doses without a T/C left all or most animals alive at the check, yet need not have been tolerated: survival well below the control is almost never listed, so the zero probably covers shortened survival too. Counts of survivors are from the toxicity check (mostly the fifth day) where no day follows; animals may have died later. Schedule codes are those of the source, read here as Q, the interval in days (D) or hours (H), X, the number of doses. Some entries were tested several times; the values are given in rising order. Some schedule codes hold Z or #, which are not explained here. For survival time, this PubChem deposit counts one and a half times the control or more as active, and values a quarter to a half above the control carry no call in these data; other NCI protocols may use other cut-offs. Some T/C values are followed by the survivors on the day toxicity was checked, most often the fifth; where none is given, no animal had died by that day.

Test system: L1210 leukemia ip in BDF1 mice, survival T/C
Test: NCI In Vivo Anticancer Drug Screen. Data for tumor model L1210 Leukemia (intraperitoneal) in B6D2F1 (BDF1) mice
Conditions: T/C endpoint: mean survival time, higher T/C = longer survival
[1] = dose: 35.0 mg/kg/injection, schedule: Q01DX009 (ip), vehicle: saline
[2] = dose: 50.0 mg/kg/injection, schedule: Q01DX009 (ip), vehicle: saline
[3] = dose: 100.0 mg/kg/injection, schedule: Q01DX009 (ip), vehicle: saline
[4] = dose: 200.0 mg/kg/injection, schedule: Q01DX009 (ip), vehicle: saline
[5] = dose: 400.0 mg/kg/injection, schedule: Q01DX009 (ip), vehicle: saline
[6] = dose: 100.0 mg/kg/injection, schedule: Q01DX009 (ip), vehicle: saline with Tween-80
[7] = dose: 400.0 mg/kg/injection, schedule: Q01DX009 (ip), vehicle: saline with Tween-80
[8] = dose: 100.0 mg/kg/injection, schedule: Q04DX002 (ip), vehicle: saline with Tween-80
[9] = dose: 200.0 mg/kg/injection, schedule: Q04DX002 (ip), vehicle: saline with Tween-80
[10] = dose: 400.0 mg/kg/injection, schedule: Q04DX002 (ip), vehicle: saline with Tween-80
[11] = dose: 400.0 mg/kg/injection, schedule: Q01DX009 (ip), vehicle: Klucel (hydroxypropylcellulose) (HPC)
[12] = dose: 300.0 mg/kg/injection, schedule: Q01DX001 (ip), vehicle: saline
[13] = dose: 400.0 mg/kg/injection, schedule: Q01DX001 (ip), vehicle: carboxymethylcellulose (CMC)
[14] = dose: 400.0 mg/kg/injection, schedule: Q04DX003 (ip), vehicle: saline with Tween-80

With COc1cc2c(c(OC)c1OC)-c1ccc(SC)c(=O)cc1[C@@H](NC1OC(CO)C(O)C(O)C1O)CC2 (some centres undefined) the T/C [1] was 139 % of control, the survivor count [1] was 6 of 6 and the T/C (dose: 50.0 mg/kg/injection, schedule: Q01DX005 (ip), vehicle: saline, evaluated on day 20) was 131 % of control. The T/C (dose: 50.0 mg/kg/injection, schedule: Q01DX005 (ip), vehicle: saline, evaluated on day 30) was 127 % of control, the T/C [2] was 147 % of control and the survivor count [2] was 6 of 6. For the same compound, the survivor count (dose: 75.0 mg/kg/injection, schedule: Q01DX009 (ip), vehicle: saline) was 6 of 6, the T/C (dose: 100.0 mg/kg/injection, schedule: Q01DX005 (ip), vehicle: saline, evaluated on day 20) was 136 % of control and the T/C (dose: 100.0 mg/kg/injection, schedule: Q01DX005 (ip), vehicle: saline, evaluated on day 30) was 129 % of control. The survivor count [3] was 5 of 6, the survivor count (dose: 200.0 mg/kg/injection, schedule: Q01DX005 (ip), vehicle: saline) was 6 of 6 and the survivor count [4] was 0 of 6. For the same compound, the survivor count [5] was 0 of 6.
In the case of CC(=O)c1cno[n+]1[O-], the survivor count [6] is reported as 0 of 6, the survivor count (dose: 200.0 mg/kg/injection, schedule: Q01DX009 (ip), vehicle: saline with Tween-80) is reported as 0 of 6 and the survivor count [7] is reported as 0 of 6.
With CCCOc1ccc(-c2nc(-c3ccc(N=Cc4ccc(N(CCOS(C)(=O)=O)CCOS(C)(=O)=O)cc4C)cc3)cs2)cc1 the T/C (dose: 33.0 mg/kg/injection, schedule: Q01DX009 (ip), vehicle: Klucel (hydroxypropylcellulose) (HPC)) was 131 % of control and the T/C (dose: 50.0 mg/kg/injection, schedule: Q01DX009 (ip), vehicle: Klucel (hydroxypropylcellulose) (HPC)) was 125 % of control.
CCCCCCCCCCCCCCCCOC(=O)C[n+]1ccc(C(N)=O)cc1 was tested, and the survivor count (dose: 400.0 mg/kg/injection, schedule: Q04DX003 (ip), vehicle: acetone) was 3 of 6.
CN(CC#N)CC#N was tested, and the survivor count [3] was 0 of 6 and 2 of 6, the survivor count [4] was 0 of 6 and the survivor count [5] was 0 of 6.
For CCCCCCC(=O)N1CC(C)OC(C)C1 (centres undefined), the survivor count (dose: 400.0 mg/kg/injection, schedule: Q04DX002 (ip), vehicle: Klucel (hydroxypropylcellulose) (HPC)) was 3 of 3.
For OC(c1ccccc1)C1C(c2ccccc2)N1C1CCCCC1 (centres undefined), the survivor count (dose: 100.0 mg/kg/injection, schedule: Q01DX009 (ip), vehicle: Klucel (hydroxypropylcellulose) (HPC)) was 5 of 6 and the survivor count (dose: 400.0 mg/kg/injection, schedule: Q04DX003 (ip), vehicle: Klucel (hydroxypropylcellulose) (HPC)) was 5 of 6.
CC(C)(O)C(Cc1ccccc1)c1ccccc1 (centres undefined) was tested, and the survivor count [8] was 1 of 3, the survivor count [9] was 0 of 3 and the survivor count [10] was 0 of 3.
With CC1CC2C(CC1=O)C(C)(C)CCC2(C)C (centres undefined) the survivor count (dose: 100.0 mg/kg/injection, schedule: Q04DX003 (ip), vehicle: Klucel (hydroxypropylcellulose) (HPC)) was 3 of 6.
CC(=O)NC1CCC(CC(=O)O)CC1 (centres undefined) was tested, and the survivor count [11] was 6 of 6.
For CC(=O)NNC(=O)c1cnccn1, the survivor count (dose: 400.0 mg/kg/injection, schedule: Q01DX001 (ip), vehicle: water) was 3 of 6, the survivor count (dose: 600.0 mg/kg/injection, schedule: Q01DX001 (ip), vehicle: water) was 0 of 6 and the survivor count (dose: 800.0 mg/kg/injection, schedule: Q01DX001 (ip), vehicle: water) was 0 of 6.
In the case of C(/C=C/C=C/Nc1ccc(N=Nc2ccccc2)cc1)=Nc1ccc(N=Nc2ccccc2)cc1, the survivor count (dose: 400.0 mg/kg/injection, schedule: Q01DX009 (ip), vehicle: saline sonified) is reported as 3 of 5.
With NC(=O)c1ncc(-c2ccccc2)[nH]c1=O the survivor count [5] was 3 of 6.
For c1ccc2c[n+](Cc3nc4ccccc4[nH]3)ccc2c1, the survivor count (dose: 150.0 mg/kg/injection, schedule: Q01DX001 (ip), vehicle: saline) was 1 of 6 and the survivor count [12] was 1 of 6.
With CCOc1cc(N)nc(N)c1[N+](=O)[O-] the survivor count [13] was 1 of 6.
In the case of O=C1OC(c2cccc(Cl)c2)=N/C1=C\c1ccccc1O, the survivor count (dose: 200.0 mg/kg/injection, schedule: Q01DX009 (ip), vehicle: Klucel (hydroxypropylcellulose) (HPC)) is reported as 6 of 6.
In the case of N#Cc1ncc(-c2ccccc2)nc1Cl, the survivor count [14] is reported as 6 of 6.
With Cc1nc2ccc(O)cc2cc1CBr the survivor count [2] was 1 of 6, the survivor count [3] was 0 of 6 and the survivor count (dose: 100.0 mg/kg/injection, schedule: Q04DX003 (ip), vehicle: saline) was 1 of 6. For the same compound, the survivor count (dose: 200.0 mg/kg/injection, schedule: Q04DX003 (ip), vehicle: saline) was 0 of 6 and the survivor count (dose: 400.0 mg/kg/injection, schedule: Q04DX003 (ip), vehicle: saline) was 0 of 6.
CSc1ccc(OC(=O)Nc2ccc(Cl)cc2)cc1C was tested, and the survivor count (dose: 400.0 mg/kg/injection, schedule: Q01DX009 (ip), vehicle: carboxymethylcellulose (CMC)) was 3 of 3 and 6 of 6.
For CCCCCCCCCCCCC/C=N\N=C(N)N, the survivor count (dose: 240.0 mg/kg/injection, schedule: Q01DX Z (ip), vehicle: saline) was 1 of 6 and the survivor count (dose: 480.0 mg/kg/injection, schedule: Q01DX Z (ip), vehicle: saline) was 0 of 6.
In the case of CCOC(=O)c1ccc(NC(C)=O)o1, the survivor count (dose: 100.0 mg/kg/injection, schedule: Q01DX001 (ip), vehicle: carboxymethylcellulose (CMC)) is reported as 0 of 4, the survivor count (dose: 200.0 mg/kg/injection, schedule: Q01DX001 (ip), vehicle: carboxymethylcellulose (CMC)) is reported as 0 of 4 and the survivor count [13] is reported as 1 of 4.
With CC(=O)Nn1cnc2c(=S)nc[nH]c21 the T/C (dose: 30.0 mg/kg/injection, schedule: Q01DX009 (ip), vehicle: saline with Tween-80) was 125 % of control, the T/C (dose: 44.0 mg/kg/injection, schedule: Q01DX009 (ip), vehicle: saline with Tween-80) was 125 and 129 % of control and the T/C (dose: 67.0 mg/kg/injection, schedule: Q01DX009 (ip), vehicle: saline with Tween-80) was 146 % of control [5 of 6 alive]. For the same compound, the T/C [6] was 135 and 146 % of control [4 of 6 alive], the survivor count (dose: 150.0 mg/kg/injection, schedule: Q01DX009 (ip), vehicle: saline with Tween-80) was 3 of 6 and the T/C (dose: 400.0 mg/kg/injection, schedule: Q01DX001 (ip), vehicle: saline with Tween-80) was 128 % of control [4 of 6 alive]. For the same compound, the survivor count [7] was 0 of 6 and the survivor count (dose: 600.0 mg/kg/injection, schedule: Q01DX001 (ip), vehicle: saline with Tween-80) was 1 of 6.
For Cc1ccc(C(=O)C[n+]2cccc3ccccc32)c(C)c1, the survivor count (dose: 50.0 mg/kg/injection, schedule: Q04DX002 (ip), vehicle: saline with Tween-80) was 1 of 3, the survivor count [8] was 0 of 3 and the survivor count [9] was 0 of 3. For the same compound, the survivor count [10] was 0 of 3.
Fc1cccc(CSC(=S)Nc2ccc(Cl)c(Cl)c2)c1 was tested, and the survivor count (dose: 200.0 mg/kg/injection, schedule: Q04DX003 (ip), vehicle: saline with Tween-80) was 2 of 3.
With CCCC1(CC)C(=O)NC(=S)N(C)C1=O (centres undefined) the survivor count (dose: 300.0 mg/kg/injection, schedule: Q01DX001 (ip), vehicle: other) was 3 of 6.
CN(C)C1=CS(=O)(=O)C1 was tested, and the survivor count [12] was 0 of 6.
In the case of CCCCNc1ccc(S(=O)(=O)c2ccc(NCCCC)c([N+](=O)[O-])c2)cc1[N+](=O)[O-], the survivor count (dose: 50.0 mg/kg/injection, schedule: Q01DX009 (ip), vehicle: DMSO) is reported as 3 of 3, the survivor count (dose: 100.0 mg/kg/injection, schedule: Q01DX009 (ip), vehicle: DMSO) is reported as 2 of 3 and the survivor count (dose: 200.0 mg/kg/injection, schedule: Q01DX009 (ip), vehicle: DMSO) is reported as 2 of 3. For the same compound, the survivor count (dose: 400.0 mg/kg/injection, schedule: Q01DX009 (ip), vehicle: DMSO) was 0 of 3.
With CNC(=O)Oc1ccc(NC(=O)OC)cc1 the survivor count [14] was 6 of 6.
For c1cc2c(c(NC3=NCCCS3)c1)CCCC2, the survivor count [11] was 0 of 6.
In the case of CC(=O)C=P(c1ccccc1)(c1ccccc1)c1ccccc1, the survivor count [13] is reported as 0 of 4.
In the case of N#Cc1ccc(O)cc1, the survivor count [11] is reported as 3 of 3.
